These are yes or no findings as the source states them, for the method shown. A result given as binding can be weak or reduced; the word gives no strength.
Target: T1, MoMagB (Magnaporthe oryzae) (UniProt O13315)
T1 sequence: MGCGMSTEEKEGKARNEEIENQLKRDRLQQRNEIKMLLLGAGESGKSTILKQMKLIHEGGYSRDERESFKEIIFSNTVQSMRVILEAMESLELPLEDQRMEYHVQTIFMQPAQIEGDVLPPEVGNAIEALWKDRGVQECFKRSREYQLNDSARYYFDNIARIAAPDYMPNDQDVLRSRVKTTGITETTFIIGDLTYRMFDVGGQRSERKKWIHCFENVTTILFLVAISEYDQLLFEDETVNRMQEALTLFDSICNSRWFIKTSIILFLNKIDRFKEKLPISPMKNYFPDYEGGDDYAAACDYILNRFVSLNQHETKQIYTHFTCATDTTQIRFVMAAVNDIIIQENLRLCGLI
Test: two-hybrid

For MoRgs2 (from UniProt G4NAT9), the binding was “binds”.

For “MoRgs8 RGS domain (from UniProt G4N2V0) (domain or fragment)”, the binding was “binds”.

Source: article PMC3248559
